These are yes or no findings as the source states them, for the method shown. Binding seen in cells or lysates may run through a third protein. A yes stands for co-enrichment or nearness to the bait. Other partners may have been found. For part of these data: A no says only that the protein was not detected with the bait.

The chains behind the UniProt entries cited, without tags or fusion partners. Where a name states a change or a piece, a line headed by the entry shows the natural chain unless it says otherwise.
UniProt Q38E63: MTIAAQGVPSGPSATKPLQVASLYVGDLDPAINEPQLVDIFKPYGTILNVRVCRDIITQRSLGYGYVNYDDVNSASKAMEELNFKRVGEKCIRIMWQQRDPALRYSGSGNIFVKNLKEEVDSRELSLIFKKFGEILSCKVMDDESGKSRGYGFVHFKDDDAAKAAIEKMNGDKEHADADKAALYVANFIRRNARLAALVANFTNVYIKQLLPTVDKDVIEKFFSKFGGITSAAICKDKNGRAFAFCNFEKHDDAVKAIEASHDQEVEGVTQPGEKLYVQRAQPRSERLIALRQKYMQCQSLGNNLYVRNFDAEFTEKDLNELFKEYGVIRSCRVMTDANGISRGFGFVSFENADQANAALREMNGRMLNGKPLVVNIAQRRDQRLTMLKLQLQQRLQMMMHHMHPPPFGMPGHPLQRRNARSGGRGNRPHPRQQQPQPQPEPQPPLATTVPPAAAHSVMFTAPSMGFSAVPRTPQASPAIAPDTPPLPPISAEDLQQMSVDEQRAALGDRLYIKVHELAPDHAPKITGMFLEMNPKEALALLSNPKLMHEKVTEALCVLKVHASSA
UniProt Q382M8: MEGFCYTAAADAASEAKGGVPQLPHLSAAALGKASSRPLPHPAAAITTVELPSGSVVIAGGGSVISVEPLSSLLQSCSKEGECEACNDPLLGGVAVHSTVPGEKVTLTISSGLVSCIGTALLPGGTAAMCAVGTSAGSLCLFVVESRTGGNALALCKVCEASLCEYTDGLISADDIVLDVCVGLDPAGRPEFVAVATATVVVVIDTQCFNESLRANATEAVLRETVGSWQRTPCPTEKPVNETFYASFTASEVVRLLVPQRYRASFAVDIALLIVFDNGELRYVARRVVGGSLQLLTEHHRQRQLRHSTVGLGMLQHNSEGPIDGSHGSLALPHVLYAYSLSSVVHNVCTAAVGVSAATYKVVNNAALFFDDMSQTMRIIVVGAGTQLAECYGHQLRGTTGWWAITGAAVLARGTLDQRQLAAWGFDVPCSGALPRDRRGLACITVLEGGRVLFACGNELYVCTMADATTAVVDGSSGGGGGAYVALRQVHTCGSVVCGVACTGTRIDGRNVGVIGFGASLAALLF
UniProt Q585M4: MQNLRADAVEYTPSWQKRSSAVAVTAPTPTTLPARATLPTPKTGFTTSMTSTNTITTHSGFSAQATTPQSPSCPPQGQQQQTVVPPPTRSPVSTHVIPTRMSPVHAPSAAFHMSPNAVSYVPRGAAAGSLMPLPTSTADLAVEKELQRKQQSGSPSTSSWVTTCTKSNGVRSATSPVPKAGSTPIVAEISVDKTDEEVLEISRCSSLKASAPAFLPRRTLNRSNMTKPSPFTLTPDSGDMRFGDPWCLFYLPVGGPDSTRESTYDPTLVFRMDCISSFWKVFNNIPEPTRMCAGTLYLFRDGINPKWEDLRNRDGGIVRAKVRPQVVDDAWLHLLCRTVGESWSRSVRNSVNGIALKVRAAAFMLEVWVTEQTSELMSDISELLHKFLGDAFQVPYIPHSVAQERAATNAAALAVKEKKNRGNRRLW
UniProt Q57UX0: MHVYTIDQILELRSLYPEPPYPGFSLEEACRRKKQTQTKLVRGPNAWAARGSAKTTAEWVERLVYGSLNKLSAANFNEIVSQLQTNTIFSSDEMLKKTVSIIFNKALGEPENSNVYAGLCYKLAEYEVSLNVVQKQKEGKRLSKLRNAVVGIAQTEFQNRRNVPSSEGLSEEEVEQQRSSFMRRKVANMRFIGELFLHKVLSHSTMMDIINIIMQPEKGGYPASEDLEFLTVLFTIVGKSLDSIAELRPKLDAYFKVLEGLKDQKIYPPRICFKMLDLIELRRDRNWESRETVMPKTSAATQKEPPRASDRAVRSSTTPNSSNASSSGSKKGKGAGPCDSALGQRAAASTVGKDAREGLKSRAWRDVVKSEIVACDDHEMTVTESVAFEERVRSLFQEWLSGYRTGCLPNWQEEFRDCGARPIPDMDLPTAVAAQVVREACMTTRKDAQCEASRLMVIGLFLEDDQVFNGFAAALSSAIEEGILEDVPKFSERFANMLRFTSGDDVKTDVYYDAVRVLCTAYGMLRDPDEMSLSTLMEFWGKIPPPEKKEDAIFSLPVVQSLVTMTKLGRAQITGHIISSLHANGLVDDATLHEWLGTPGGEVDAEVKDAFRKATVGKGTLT

Assay [1] deals with NUP158 endogenously tagged with eYFP at the C terminus (T. brucei) (UniProt Q387F2). Nature of the assay: affinity purification with mass spectrometry; cryomill affinity capture of NUP158-eYFP; buffer 3 (20 mM Hepes pH 7.4, 250 mM NaCl, 0.5% CHAPS); GFP-Trap magnetic anti-GFP nanobody beads, four washes, on-bead trypsin, triplicate LC-MS/MS; cutoffs SigA/SigB.
Assay [2] addresses NUP158-TurboID (T. brucei) (UniProt Q387F2). Nature of the assay: proximity labelling; BioID: bait fused C-terminally to TurboID-HA at the endogenous locus in procyclic T. brucei; steady-state biotinylation with the biotin of SDM-79 medium (827 nM); streptavidin Dynabeads, washes incl. 2% SDS, on-bead trypsin, LC-MS/MS, LFQ, triplicates against wt cells and an eYFP-TurboID control; cutoffs SigA (FDR 0.01) and SigB (FDR 0.05).

For assay [3], the target named is PABP1-TurboID (T. brucei) (UniProt Q38E63). Described as above.
The target in assay [4] is MEX67 TurboID (T. brucei). The description is as above.
Assay [5] deals with C-terminally GFP-tagged MEX67 (T. brucei). Nature of the assay: affinity purification with mass spectrometry; cryomill affinity capture of MEX67-GFP with anti-GFP nanobody; data of ref. 11 reanalysed here for three extraction conditions (buffer 1: 20 mM Hepes pH 7.4, 250 mM NaCl, 0.5% Triton; buffers 2A and 2B with sodium citrate and 0.5% Tween-20) against a control without GFP tag; confidence A: >2-fold in all three, confidence B: >2-fold in at least one.

Consider Tb927.11.13080 (from UniProt Q382M8), for which the binding entry in assay [1] and in assay [2] was “binds” each time.

eIF4E4 (from UniProt Q585M4): in assay [3], the binding result was “binds”.

As to eIF4G3 (from UniProt Q57UX0), in assay [3], the binding entry is on record as “binds”.

B1: KMP11 (protein, UniProt P69301 1-92)
chain: MATTYEEFAAKLDRLDAEFAKKMEEQNKRFFADKPDEATLSPEMKEHYEKFEKMIQEHTDKFNKKMREHSEHFKAKFAELLEQQKNAQFPGK
Take B1: the binding entry in assay [4] and in assay [5] was “no binding” in each case.

B2: exportin-1 (XPO1) (protein, UniProt Q7Z2C1 1-1033)
chain: MEDILDFSKPVDVQRFDQVVQYLSTGSPQEIVRAQEVLTAFKERPDSFLRVGDLLTKSVNLTTRFFALQVLEDAILHRWNTFTAEQCQEIRNFVVNMIVGECVSFNQIRSRRALLMKMNSALVSIAKREWPVRWPTFIKDVCSSAGPDEPLVENNLNILRMVGEEIFEFSEKTLTTRWLKRKKEALQSDFQAILQLCLSILSTSDEALLKTNLECLEKYLSWVEPASVFNEELLKYLAGLIARKSAVSRCAVRCLTVACSVETDHGSVGDAQAQVMVRVFRTILDNIMNLLPTNHSSVEARIVQFSNMEGSVDAGFVGDLNLLLVAFLKHYTRNIMYDDLLLISANQLIVGMSHINDKELFKSCVDYWWWLGEKMVRSASPTPLHRKLALVLSNVRFTLIKKMARPEEVIIVVEDGEVRRVHMKDVEELQLYKLMRETLVFLTYLDPQDMQAIMTKIVMKLEDLSEWSWHNCNTLSWAVGAISVALTEEQESSLFVVIVRGLLDLCSKLQGKENRAVVASGIMFVVGQYPRFLRAHQPFFRAVVKKVIEFMCDLFPGVQEMAVDTLLKVASQVPDQFVCVKNNGISLAEETAKRWTEITSLLKPQHMHTCFVAAGWMVKGEKPERQPSLLGMFLQDANDSFRIIVERAASKGPAFGEDFSGMGELIHILRVFSSIASSCGTSFVNEMGIIIYDLQGLYRTFFSAQTALVADHGTDAMERQEARYLRLAKREILRIFECFVDNTEECDFVATNCMPSILTTVLEDYRDSLPIVKEAGALALVTACVNKLGTRLAGDCAAILDHTSDTTISMICANAEDFPEFRVNLFKLLHALNTRCFSNFLSYASTKGDVINGMLWVIKHTDFAIMETGLKTLDAFLENVSRSELLQPFYDAFMQQIFVEVLVSAMDSLHAAGFELHCSILIKLFTVSSMFPVDLPKLGRNDIESFLCENLSTIATLTPVLIKQFIAGAYEKYGDPVEFRRSFADFLIEMQVWGAEEENRLQQEEEQRRREEDIPGFAALSVKGPPPTPSFYP
Consider B2, for which the binding entry in assay [4] is listed as “binds”.

B3: cap guanylyltransferase-methyltransferase 1 (CGM1) (protein, UniProt Q57V03 1-1050)
chain: MESTSSLSDLHKYAERRFGRSLLIPVDEEFVKAVHPPVPSEASEVAPAVDFVEAYRNLVSRNLQRKRTANNAPTSPASSGVPKFIYAHAAEAVVGTRVGEFMGPLCSPLRKSHASMLRSAPYFVTEKSDGTRVVLVSLIAPLGPSWSIEDKNGGDVLLKHVGRLDDVVALEEARQQLCQENTAQVGDLHQKIHLSFGHFAVERWHEKSSYGTVELFALRCCENGSSSSQGGGDVIRAERLIGKRHMAYCFDRSMDYAYLLLEEHAVPSLHSFVVDAELMVPIQKGSARLLLGCFDVFRYVIVGESAPRDVVLTRAHTSARHAALRKDIIEPMEEFQRGTVGVPLLRIFAKEMFPLNKFGDCVLRLRCGESANHIGGVVYLYDGPYGWTKSDGFIFTPEKFDILQGASKTQLKWKWPSMLSVDWSLTAFEGQNNFFVVDSFFRKKRFGHQPDSCGHVRLSSKMSLLNPFSLPIPTRGSVVAECVFDREQKCWSIERLRNDKAEANSIVTIISVMESLVEDITLSTLFDLIGLNDTPLPSEKVHELESAADMVNRGGERGNTAAIQDVEEKHEKKRCQFTLRATQLQAQGEHEIHLYWAVRLPSEKAHVPCIHCKVSECTGFGFACPAEDPTSRLREYLYIALANAGGSCAWSDFTVEAVFNGGTGRWNIASMQPNGDNKRSTCVGVIHHLQWLLQRGVDSASPESTETPERVIPLHLQGVERPAVLQVEQVNAHYACKTKELSTGKNRSILRHYNNWIKGVLISTSVSYLRSNNKGGEFDNDGMVVADLCSGRGGDLHKWRAHQPKLLFMTDCCLEAVAEAAARYSITKGLSIKVVPHDKNPPGIRAQFCVLDVFDEKGSLVTKLEEFLKQCHDGGKLDVVSCQFSIHYGCSNEERVRVFLSAVSSTLKSGGIFIGTTVSDTELLRRLRQYGTTFGNGIYTVRFPTDAVPNDSFGVEYSVSFESSVSEMPEYLVPWNRFVNLCGAYNLQLVESFGFVEYGDMHYNSALGQELRDASMNGGRRDSDGHLRLRLSPDEAEAAGLFRTFLFVKI
As for B3, the binding entry in assay [4] is “binds”.

B4: exosome subunit RRP6 (protein, UniProt Q95Z10 1-703)
chain: MSGSLPQTKDLVNGAFTLVKEYTKLTADLAEEDYDYHMAFPAFRHQITRHSEAVVSLMDKFCQLLPAKRRVTLSSTGGKLTDPQRAAVMEAADSLLENVDGLLDELKGRRLSAKDQLSVKFGSELQGVVPSSSYSVFNAAGVSVLRPQLTFEHPVDNSPTPFRPVYYDEKGVRHVGEPGVHPFAERIKAVSVPSEQLLLKTETPYLSLVTCPLTFVDTVEDLEALVAVLLNETEIAVDLEHHDFYSYQGFTCLMQISTRTQDFIVDCLKVRANMYLMAPVFLQPNIVKVFHGAREDVRWLQKDFGLYIVNLFDTSIALQNLHMPHSLAFAVDHFCQVKLNKKYQTADWRVRPIPAEMVSYAQQDTHFLLYVYDRLKQLLLNCEARASVGNMLLHVFQESRLLSLERYEKPHLDPDVTYKQALGRSLGGLSSPQLQVAREIFNWRDMAAREADDSPSAVMHISCVLSIATKLPTSANEVLKCCSPVSVAVRTNVMKLLQIVKDAIGSADSLKDGANGDVKPKPLPNVGVALRYMGVHRSMTGTLPSIEQRADPAFTVEDAHVVVRTEPSAWFETMRNVAAILRRKPYYPIALPGHDVVTRMSAVKRAREVEEMKVKGEGEEEEKRVHVDAEEPTVERENSSERGEGMAGPCLQEGLEVKDEVEEIDVPTQKPLELKEGAISLHQQYGTGSANRKKARLGKKNKL
With B4, the binding entry in assay [4] was “binds”.

The values are drawn from paper PMC9791439.
